Results deposited as PubChem BioAssay AID1259405 (NCATS, 2018).

Aim: 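Silenced genes that increase secreted GFP made by CHO cells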 (primary screen)
System: Chinese hamster CHO-K1 ovary cells with stable secreted eGFP expression
Reagents: single siRNA against mouse genes, 0.8 pmol siRNA per well (2 µl of 400 nM stock)
Timing: 3 days
Measured: 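Per-well intracellular GFP measured by laser scanning cytometry, plus viability from ATP luminescence, each relative to plate median of non-targeting control wells, in %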
Direction: GFP, % of control: higher = more GFP per well, higher productivity; viability (ATP), % of control: higher = more viable cells (more ATP)
Rule for the call: 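Called active when intracellular GFP, relative to negative control, is at or above 120%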
The whole screen tested about 50,000 reagents; below is an unselected part. About 4,000 of them (8%) were called active. 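Mouse siRNA library applied to hamster cells; one well for each siRNA.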 Reagents against one gene are numbered here.

Arf3 #1 scored GFP, % of control 85.6; viability (ATP), % of control 108; inactive.
After knock-down of Arf3 #2 the results were GFP, % of control 83.4; viability (ATP), % of control 101; inactive.
Depletion of Arf3 #3 resulted in: GFP, % of control 94.6; viability (ATP), % of control 133; inactive.
Zc3h13 #1 showed GFP, % of control 92.2; viability (ATP), % of control 76; inactive.
Zc3h13 #2 gave GFP, % of control 62.2; viability (ATP), % of control 63.6; inactive.
Against Zc3h13 #3, the values are GFP, % of control 94; viability (ATP), % of control 102; inactive.
Against Dr1 #1 the deposit lists GFP, % of control 67; viability (ATP), % of control 80.3; inactive.
Dr1 #2 showed GFP, % of control 66.8; viability (ATP), % of control 60.5; inactive.
For Dr1 #3, the entry reads GFP, % of control 106; viability (ATP), % of control 106; inactive.
Silencing of Dusp6 #1 came out at: GFP, % of control 57.7; viability (ATP), % of control 70.9; inactive.
Depletion of Dusp6 #2 gave: GFP, % of control 75; viability (ATP), % of control 60.4; inactive.
Against Il5ra #1, the entry reads GFP, % of control 127; viability (ATP), % of control 90.7; active.
Against Il5ra #2, the values are GFP, % of control 74.1; viability (ATP), % of control 58; inactive.
Il5ra #3 showed GFP, % of control 70.7; viability (ATP), % of control 63.9; inactive.
Golga7 #1 gave GFP, % of control 61.9; viability (ATP), % of control 54.9; inactive.
Against Golga7 #2 the deposit lists GFP, % of control 134; viability (ATP), % of control 54.8; active.
After knock-down of Golga7 #3, the screen gave GFP, % of control 91; viability (ATP), % of control 79.9; inactive.
For G430095P16Rik #1, the entry reads GFP, % of control 73.8; viability (ATP), % of control 84.9; inactive.
Silencing of G430095P16Rik #2 came out at: GFP, % of control 92.1; viability (ATP), % of control 81; inactive.
Against G430095P16Rik #3 the deposit lists GFP, % of control 113; viability (ATP), % of control 98.3; inactive.
Silencing of Or5p67 #1 came out at: GFP, % of control 139; viability (ATP), % of control 49.8; active.
For Or5p67 #2, the entry reads GFP, % of control 102; viability (ATP), % of control 66.4; inactive.
Or5p67 #3 gave GFP, % of control 69.8; viability (ATP), % of control 49.4; inactive.
Silencing of Med13l #1 gave: GFP, % of control 66.8; viability (ATP), % of control 67.9; inactive.
With knock-down of Med13l #2, the screen gave GFP, % of control 60.4; viability (ATP), % of control 90.7; inactive.
Med13l #3 showed GFP, % of control 82.4; viability (ATP), % of control 114; inactive.
With knock-down of Jph4 #1, the record shows GFP, % of control 68.7; viability (ATP), % of control 76.2; inactive.
After knock-down of Jph4 #2, the screen gave GFP, % of control 70.2; viability (ATP), % of control 62.7; inactive.
For Jph4 #3, the entry reads GFP, % of control 117; viability (ATP), % of control 55.2; inactive.
Against Adgrf1 #1, the entry reads GFP, % of control 44.7; viability (ATP), % of control 66.8; inactive.
Adgrf1 #2 showed GFP, % of control 74.5; viability (ATP), % of control 71.8; inactive.
Depletion of Adgrf1 #3 gave: GFP, % of control 89; viability (ATP), % of control 83.6; inactive.
Against Tmem181a #1 the deposit lists GFP, % of control 134; viability (ATP), % of control 89.9; active.
After knock-down of Tmem181a #2 the results were GFP, % of control 78.1; viability (ATP), % of control 87.6; inactive.
Tmem181a #3 gave GFP, % of control 118; viability (ATP), % of control 135; inactive.
Depletion of Coprs #1 gave: GFP, % of control 139; viability (ATP), % of control 88.1; active.
With knock-down of Coprs #2, the screen gave GFP, % of control 74.3; viability (ATP), % of control 46.3; inactive.
After knock-down of Coprs #3 the results were GFP, % of control 156; viability (ATP), % of control 73.5; active.
With knock-down of Spn #1, the record shows GFP, % of control 81.6; viability (ATP), % of control 88.6; inactive.
Depletion of Spn #2 gave: GFP, % of control 84.3; viability (ATP), % of control 103; inactive.
Silencing of Spn #3 resulted in: GFP, % of control 120; viability (ATP), % of control 150; active.
